Test results taken from PubChem BioAssay (NCATS).
Several values for one entry are separate records, joined by “and”; a condition that tells them apart may be missing. Equal values may be shown once. Some of the results follow. The main result of the screen is listed elsewhere. These columns were measured beside it and carry no call. For some of these results: The list favours compounds with an active or inconclusive main result. For some of these results: The note in brackets gives the kind of curve behind each potency; many fits are weak.

Amino acid sequences for entries named in this document (tags omitted). A change or cut given only in a name is not applied to a line headed by its entry.
UniProt P21964: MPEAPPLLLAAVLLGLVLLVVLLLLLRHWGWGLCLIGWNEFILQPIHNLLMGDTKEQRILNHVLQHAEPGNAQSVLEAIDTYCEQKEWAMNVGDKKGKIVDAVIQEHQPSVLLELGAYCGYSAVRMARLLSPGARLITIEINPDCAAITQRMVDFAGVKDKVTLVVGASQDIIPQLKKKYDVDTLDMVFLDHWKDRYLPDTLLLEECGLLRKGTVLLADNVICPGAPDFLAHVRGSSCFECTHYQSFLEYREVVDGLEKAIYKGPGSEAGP
UniProt P50135: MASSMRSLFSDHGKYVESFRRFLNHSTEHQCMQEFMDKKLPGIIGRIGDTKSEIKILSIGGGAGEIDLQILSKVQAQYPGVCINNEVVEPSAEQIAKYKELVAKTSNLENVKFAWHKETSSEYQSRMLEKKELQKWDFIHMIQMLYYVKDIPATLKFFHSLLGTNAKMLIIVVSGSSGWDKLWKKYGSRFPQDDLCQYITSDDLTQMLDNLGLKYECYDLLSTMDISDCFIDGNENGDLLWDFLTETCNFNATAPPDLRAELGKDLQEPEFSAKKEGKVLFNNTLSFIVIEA
UniProt P40261: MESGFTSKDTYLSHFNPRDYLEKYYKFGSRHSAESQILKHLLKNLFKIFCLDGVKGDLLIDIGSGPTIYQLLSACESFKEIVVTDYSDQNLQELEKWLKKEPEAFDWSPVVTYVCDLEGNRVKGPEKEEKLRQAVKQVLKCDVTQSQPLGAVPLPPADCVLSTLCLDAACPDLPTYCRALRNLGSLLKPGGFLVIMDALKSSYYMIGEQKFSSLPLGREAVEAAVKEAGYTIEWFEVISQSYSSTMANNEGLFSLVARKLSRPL
UniProt P11086: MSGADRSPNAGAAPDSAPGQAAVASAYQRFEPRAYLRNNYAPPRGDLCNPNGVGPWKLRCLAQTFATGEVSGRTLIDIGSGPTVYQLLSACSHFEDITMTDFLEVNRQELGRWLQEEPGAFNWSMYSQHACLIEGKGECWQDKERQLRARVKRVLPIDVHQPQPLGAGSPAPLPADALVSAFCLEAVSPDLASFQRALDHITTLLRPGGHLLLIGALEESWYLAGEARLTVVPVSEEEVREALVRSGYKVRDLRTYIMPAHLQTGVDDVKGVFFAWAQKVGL

System: not listed separately
Assay: qHTS assay for small molecule agonists of retinoid X receptor alpha signaling (AID 588544)
Settings: HEK293T RXRa-UAS-bla, beta-lactamase reporter, 18 h; 530 nm emission

Compound | max response
O=c1cc(-c2ccc(O)cc2)oc2cc(O)cc(O)c12 | 62.3% and 73%
CC/C(=C(\c1ccccc1)c1ccc(OCCN(C)C)cc1)c1ccccc1 | -57% and -74.4%
O=C(Nc1ccc([N+](=O)[O-])cc1Cl)c1cc(Cl)ccc1O | 11.2%

System: not listed separately
Assay: qHTS assay for small molecule antagonists of retinoid X receptor alpha signaling (AID 588546);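 further: cells stimulated with 9-cis-retinoic acid as agonist; on the % scale 0 is the no-effect control and ±100 the full control effect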
Settings: HEK293T RXRa-UAS-bla, beta-lactamase ratio, antagonist mode; measured here: W530 green channel, cytotoxicity proxy
How it was run: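 Beta-lactamase reporter inhibition, read as CCF4 fluorescence ratio (ex 405, em 460/530 nm) after 2 h at RT. HEK293T UAS-bla cells, 2500/well, were stimulated with 9-cis-RA at 500 or 100 nM final alongside test compound for 18 h at 37 C.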

Compound | max response
O=c1cc(-c2ccc(O)cc2)oc2cc(O)cc(O)c12 | 32.4% and 36.5%
CC/C(=C(\c1ccccc1)c1ccc(OCCN(C)C)cc1)c1ccccc1 | -58.9% and -59.4%
Oc1ccc(/C=C/c2cc(O)cc(O)c2)cc1 | 19.1%

System: not listed separately
Assay: S16 Schwann cell PMP22 intronic element beta-lactamase assay (AID 624044)
Settings: S16 rat Schwann cells, PMP22 element beta-lactamase FRET, 24 h; measured here: 460 nm blue channel
How it was run: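 Rat S16 Schwann cells with beta-Lac driven by a PMP22 intronic element, compound-treated 24 h at 37 °C. LiveBLAzer FRET B/G read: 460 nm normalized to potassium clavulanate vs DMSO; 535 nm FRET as viability; concentration-effect curves classified.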

Compound | AC50
COC(=O)Nc1nc2ccc(C(=O)c3cccs3)cc2[nH]1 | 0.891 µM [falling, full curve]
CC(=O)[C@]1(O)Cc2c(O)c3c(c(O)c2[C@@H](O[C@H]2C[C@H](N)[C@H](O)[C@H](C)O2)C1)C(=O)c1ccccc1C3=O | 0.0631 µM [falling, full curve]
C[n+]1cc2c3c(ccc2c2ccc4cc5c(cc4c21)OCO5)OCO3 | 17.8 µM [falling, partial curve]
O=C1c2c(O)ccc(O)c2C(=O)c2c(NCCNCCO)ccc(NCCNCCO)c21 | 1.07 µM [falling, full curve]
O=C(Nc1ccc([N+](=O)[O-])cc1Cl)c1cc(Cl)ccc1O | 1.12 µM [falling, full curve]

System: not listed separately
Assay: A High-Content qHTS Against Drug Library for the Identification of Small Molecules that Inhibit DYT1 Early Onset Primary Dystonia-Associated Cell Pathology (AID 1645839)
Settings: HEK293 Flp-In EGFP-delE TorsinA, punctate imaging, 48 h; measured here: cell count cytotoxicity
How it was run: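 In this high-content image screen, delE TorsinA mislocalization in inducible Flp-In 293 cells is scored as %pathology, with cell count serving as the counterscreen. Compound exposure lasts 48 h under tetracycline induction in reduced-serum medium.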

Compound | AC50
CN1CCN(CCCN2c3ccccc3Sc3ccc(C(F)(F)F)cc32)CC1 | 7.94 µM [falling, partial curve]
CC(=O)OCC1=C(C(=O)O)N2C(=O)[C@@H](NC(=O)Cc3cccs3)[C@H]2SC1 | 15.8 µM [rising, single point]
CC/C(=C(\c1ccccc1)c1ccc(OCCN(C)C)cc1)c1ccccc1 | 3.98 µM [falling, partial curve, poor fit]
C[n+]1cc2c3c(ccc2c2ccc4cc5c(cc4c21)OCO5)OCO3 | 0.251 µM [falling, full curve, poor fit]
Fc1ccc(C(c2ccc(F)cc2)N2CCN(C/C=C/c3ccccc3)CC2)cc1 | 10 µM [falling, partial curve, poor fit]
O=C(Nc1ccc([N+](=O)[O-])cc1Cl)c1cc(Cl)ccc1O | 0.708 µM [falling, full curve, poor fit]

Biological target: Catechol O-methyltransferase (Homo sapiens) (UniProt P21964)
Assay: Confirmatory Screen for Target Class Profiling of Small Molecule Inhibitors of Methyltransferases (AID 1745852)
Settings: MTase-Glo luminescence, SAH detection, recombinant enzyme; measured here: COMT inhibition potency

Compound | IC50
O=C1C(SCCO)=C(SCCO)C(=O)c2ccccc21 | 1.53 µM [falling, full curve]
COC1=C(OC)C(=O)c2ccccc2C1=O | 4.85 µM [falling, full curve]
COc1cc2ncnc(Nc3cccc(Cl)c3)c2cc1OC | 24.1 µM [falling, partial curve]
Oc1cc(O)cc(/C=C/c2ccc(O)c(O)c2)c1 | 1.09 µM [rising, full curve]

Biological target: Histamine N-methyltransferase (Homo sapiens) (UniProt P50135)
Assay: as above
Settings: MTase-Glo luminescence, SAH detection, recombinant enzyme; measured here: HNMT inhibition potency

Compound | IC50
NCC(O)C1CCCCCCC1 (stereo unspecified) | 19.3 µM [falling, partial curve]
O=C1C(SCCO)=C(SCCO)C(=O)c2ccccc21 | 30.6 µM [falling, partial curve]
COc1cc2ncnc(Nc3cccc(Cl)c3)c2cc1OC | 27.1 µM [falling, partial curve]

Biological target: Nicotinamide N-methyltransferase (Homo sapiens) (UniProt P40261)
Assay: as above
Settings: MTase-Glo luminescence, SAH detection, recombinant enzyme; measured here: NNMT inhibition potency

Compound | IC50
COc1ccc(NC(=O)/C=C/c2ccc(Cl)cc2)cc1 | 27.3 µM [falling, partial curve]
O=C1C(SCCO)=C(SCCO)C(=O)c2ccccc21 | 30.6 µM [falling, partial curve]
C[C@]12CC[C@@H]3c4ccc(O)cc4CC[C@H]3[C@@H]1CCC2=O | 30.6 µM [falling, partial curve]
CC(C)(Sc1ccc(CCN(CCCCC2CCCCC2)C(=O)NC2CCCCC2)cc1)C(=O)O | 27.1 µM [falling, partial curve]
COc1cc2ncnc(Nc3cccc(Cl)c3)c2cc1OC | 27.1 µM [falling, partial curve, poor fit]
CC(C)c1ccc2c(c1)c(SC(C)(C)C)c(CC(C)(C)C(=O)O)n2Cc1ccc(Cl)cc1 | 21.7 µM [falling, partial curve]

Biological target: Phenylethanolamine N-methyltransferase (Homo sapiens) (UniProt P11086)
Assay: as above
Settings: MTase-Glo luminescence, SAH detection, recombinant enzyme; measured here: PNMT inhibition potency

Compound | IC50
NCC(O)C1CCCCCCC1 (stereo unspecified) | 13.7 µM [falling, partial curve]
O=C1C(SCCO)=C(SCCO)C(=O)c2ccccc21 | 1.53 µM [falling, full curve]
COC1=C(OC)C(=O)c2ccccc2C1=O | 3.85 µM [falling, full curve]
COc1cc2ncnc(Nc3cccc(Cl)c3)c2cc1OC | 24.1 µM [falling, partial curve]

System: not listed separately
Assay: qHTS drug screen for cell cycle checkpoint inhibitors in PARPi-resistant BRCA-mutant ovarian cancer cell lines. (AID 1963452)
Settings: PEO1/OlaR viability, CellTiter-Glo luminescence, 96 h; measured here: PEO1 parental viability
How it was run: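 PEO1, PEO4 and PEO1/OlaR ovarian cancer cells, 600 per well, exposed 96 h at 37C to a dilution series. Viability read by CellTiter-Glo luminescence, normalized to DMSO and empty wells; activity summarized as Z-AUC.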

Compound | AC50
CN1CCN(CCCN2c3ccccc3Sc3ccc(C(F)(F)F)cc32)CC1 | 15.5 µM [falling, single point]
COC(=O)Nc1nc2ccc(C(=O)c3cccs3)cc2[nH]1 | 0.0692 µM [falling, full curve]
O=c1cc(-c2ccc(O)cc2)oc2cc(O)cc(O)c12 | 24.5 µM [falling, single point]
CC(=O)[C@]1(O)Cc2c(O)c3c(c(O)c2[C@@H](O[C@H]2C[C@H](N)[C@H](O)[C@H](C)O2)C1)C(=O)c1ccccc1C3=O | 2.19 µM [falling, full curve]
CC/C(=C(\c1ccccc1)c1ccc(OCCN(C)C)cc1)c1ccccc1 | 4.47 µM [falling, full curve]
COc1cc2ncnc(Nc3cccc(Cl)c3)c2cc1OC | 13.8 µM [falling, partial curve, poor fit]
CC(C)c1ccc2c(c1)c(SC(C)(C)C)c(CC(C)(C)C(=O)O)n2Cc1ccc(Cl)cc1 | 27.5 µM [falling, single point]
Oc1ccc(/C=C/c2cc(O)cc(O)c2)cc1 | 17.4 µM [falling, single point]
Oc1ccc(-c2nc(-c3ccc(F)cc3)c(-c3ccncc3)[nH]2)cc1 | 17.4 µM [falling, single point]
O=C1c2c(O)ccc(O)c2C(=O)c2c(NCCNCCO)ccc(NCCNCCO)c21 | 0.195 µM [falling, full curve]
O=C(Nc1ccc([N+](=O)[O-])cc1Cl)c1cc(Cl)ccc1O | 0.347 µM [falling, full curve]
